Measurements reported in patent US20200297796A1.
These are yes or no findings as the source states them, for the method shown. Binding seen in cells or lysates may run through a third protein. Some binding calls cover weakened binding; strength is not graded here. For some assays here: Where a sequence is shown, tags or fusion partners need not be part of it.

The chains behind the UniProt entries cited, without tags or fusion partners. Where a name states a change or a piece, a line headed by the entry shows the natural chain unless it says otherwise.
UniProt Q13098: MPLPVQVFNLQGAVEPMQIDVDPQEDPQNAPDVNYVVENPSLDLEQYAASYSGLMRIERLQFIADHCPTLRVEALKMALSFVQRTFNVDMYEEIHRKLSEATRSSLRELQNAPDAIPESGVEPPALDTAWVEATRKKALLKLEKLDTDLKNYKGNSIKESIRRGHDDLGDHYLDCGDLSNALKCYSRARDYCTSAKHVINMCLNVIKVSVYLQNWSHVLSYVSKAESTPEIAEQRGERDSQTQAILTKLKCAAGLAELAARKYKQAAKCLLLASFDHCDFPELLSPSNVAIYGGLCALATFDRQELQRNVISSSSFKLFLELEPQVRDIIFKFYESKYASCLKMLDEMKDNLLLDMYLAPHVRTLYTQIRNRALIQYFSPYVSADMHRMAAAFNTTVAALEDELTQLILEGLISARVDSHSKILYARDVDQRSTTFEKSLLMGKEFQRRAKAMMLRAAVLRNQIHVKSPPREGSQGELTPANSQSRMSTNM
UniProt Q92466: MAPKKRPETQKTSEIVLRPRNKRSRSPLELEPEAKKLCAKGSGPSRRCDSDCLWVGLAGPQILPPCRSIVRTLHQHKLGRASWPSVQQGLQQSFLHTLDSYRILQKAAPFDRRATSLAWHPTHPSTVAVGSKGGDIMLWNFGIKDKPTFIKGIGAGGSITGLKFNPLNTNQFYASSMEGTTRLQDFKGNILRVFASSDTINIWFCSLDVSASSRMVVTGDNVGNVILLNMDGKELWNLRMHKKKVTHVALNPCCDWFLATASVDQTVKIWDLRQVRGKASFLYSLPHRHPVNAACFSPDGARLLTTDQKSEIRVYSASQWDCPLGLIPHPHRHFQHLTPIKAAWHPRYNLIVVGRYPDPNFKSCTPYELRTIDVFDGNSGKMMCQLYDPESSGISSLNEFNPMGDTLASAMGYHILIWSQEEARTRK

What was measured:
[1] = target: COP9 signalosome (CSN) complex of WT cells (human) (UniProt Q13098); experiment: reciprocal co-immunoprecipitation, anti-CSN3 antibody, Western blot
[2] = target: COP9 signalosome (CSN) complex of WT cells (human) (UniProt Q13098); experiment: reciprocal co-immunoprecipitation, anti-FLAG resin or anti-CSN3 antibody, Western blot

Row | binding [1] | binding [2] | Molecule
1 | binds | – | DDB2 (from UniProt Q92466 1-427)
2 | – | binds | FBXL15-FLAG (protein, UniProt Q9H469 1-300, looked up, not shown: small tags and cut ends) MEPPMEPSGGEQEPGAVRFLDLPWEDVLLPHVLNRVPLRQLLRLQRVSRAFRSLVQLHLAGLRRFDAAQVGPQIPRAALARLLRDAEGLQELALAPCHEWLSDEDLVPVLARNPQLRSVALGGCGQLSRRALGALAEGCPRLQRLSLAHCDWVDGLALRGLADRCPALEELDLTACRQLKDEAIVYLAQRRGAGLRSLSLAVNANVGDAAVQELARNCPELHHLDLTGCLRVGSDGVRTLAEYCPVLRSLRVRHCHHVAESSLSRLRKRGVDIDVEPPLHQALVLLQDMAGFAPFVNLQV
